No constants are given. Whether binding was seen depends on the method and setting. Some entries that bind do so weakly or less than the wild type.
How the values were obtained:
[1] = biological target: cynomolgus monkey HGF (cynomolgus monkey) (UniProt C9E9X5); assay: ELISA, immobilised target
[2] = biological target: T1, mouse VEGF-A (mouse) (UniProt Q00731); assay: ELISA, immobilised target
T1 sequence (looked up): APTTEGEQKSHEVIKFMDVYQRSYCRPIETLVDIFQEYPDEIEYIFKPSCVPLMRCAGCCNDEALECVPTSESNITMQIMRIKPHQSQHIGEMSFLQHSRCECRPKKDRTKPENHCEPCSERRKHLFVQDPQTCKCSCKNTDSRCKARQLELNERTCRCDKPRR

By UniProt entry, the sequences of proteins in these tests, tags left out. Where a name states a change or a piece, a line headed by the entry shows the natural chain unless it says otherwise. Chains listed by the source or under a name are the forms on record and can include a tag or linker.
cynomolgus monkey HGF (C9E9X5, form named): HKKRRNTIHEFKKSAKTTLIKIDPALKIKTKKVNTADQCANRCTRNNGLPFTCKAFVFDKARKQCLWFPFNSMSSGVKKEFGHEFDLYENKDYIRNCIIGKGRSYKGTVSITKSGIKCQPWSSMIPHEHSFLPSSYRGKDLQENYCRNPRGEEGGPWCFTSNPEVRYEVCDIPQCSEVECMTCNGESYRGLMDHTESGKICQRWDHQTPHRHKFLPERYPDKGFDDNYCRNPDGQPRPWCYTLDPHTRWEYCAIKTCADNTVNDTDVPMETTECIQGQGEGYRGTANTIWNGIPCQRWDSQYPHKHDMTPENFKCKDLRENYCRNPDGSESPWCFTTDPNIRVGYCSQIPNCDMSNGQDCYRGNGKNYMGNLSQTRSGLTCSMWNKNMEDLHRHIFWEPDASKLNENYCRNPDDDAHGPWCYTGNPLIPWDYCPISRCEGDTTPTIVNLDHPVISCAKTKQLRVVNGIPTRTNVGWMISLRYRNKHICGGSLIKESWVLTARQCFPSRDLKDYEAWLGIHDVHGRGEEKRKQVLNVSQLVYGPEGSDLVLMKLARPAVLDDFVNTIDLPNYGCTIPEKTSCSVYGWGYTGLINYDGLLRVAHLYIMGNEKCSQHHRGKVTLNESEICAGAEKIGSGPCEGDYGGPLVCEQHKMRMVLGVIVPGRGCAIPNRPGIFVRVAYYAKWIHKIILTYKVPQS

[3] = biological target: T2, rat VEGF-A (rat) (UniProt P16612); assay: ELISA, immobilised target
T2 sequence (looked up): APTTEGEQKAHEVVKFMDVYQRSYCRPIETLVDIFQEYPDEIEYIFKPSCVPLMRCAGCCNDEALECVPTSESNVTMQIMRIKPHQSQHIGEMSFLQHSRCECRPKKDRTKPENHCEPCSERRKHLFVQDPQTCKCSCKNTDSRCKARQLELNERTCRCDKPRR

[4] = biological target: T1, mouse VEGF-A (mouse); assay: ELISA (FIG. 6A)
[5] = biological target: T2, rat VEGF-A (rat); assay: ELISA (FIG. 6A)
[6] = biological target: cynomolgus monkey HGF (cynomolgus monkey) (UniProt C9E9X5); assay: ELISA (FIG. 6B)

Measured: binding

B1: Protein #134 (designed binder)
chain: GSDLGKKLLEAARAGQDDEVRELLKAGADVNAKDYFSHTPLHLAARNGHLKIVEVLLKAGADVNAKDFAGKTPLHLAANEGHLEIVEVLLKAGADVNAQDIFGKTPADIAADAGHEDIAEVLQKAAGSPTPTPTTPTPTPTTPTPTPTGSDLGKKLLEAARAGQDDEVRILLKAGADVNAKDRYGDTPLHLAADIGHLEIVEVLLKAGADVNAEDYFGNTPLHLAASYGHLEIVEVLLKAGADVNAKDDYGNTPLHLAANTGHLEIVEVLLKAGADVNAQDKSGKTPADLAADAGHEDIAEVLQKAAGSPTPTPTTPTPTPTTPTPTPTGSDLDKKLLEAARAGQDDEVRILLKAGADVNAKDSTGWTPLHLAAPWGHPEIVEVLLKAGADVNAKDFQGWTPLHLAAAAGHLEIVEVLLKAGADVNAQDKSGKTPADLAADAGHEDIAEVLQKAAGSPTPTPTTPTPTPTTPTPTPTGSDLGKKLLEAARAGQDDEVRELLKAGADVNAKDYFSHTPLHLAARNGHLKIVEVLLKAGADVNAKDFAGKTPLHLAANEGHLEIVEVLLKAGADVNAQDIFGKTPADIAADAGHEDIAEVLQKAA
binds: [1] | [2] | [3] | [4] | [5] | [6]

Source: patent publication US20160289285A1
